Laboratory results published in PubChem BioAssay (NCATS).
The inconclusive results got no clear call from the source; some entries with a clear call stand among them for comparison. Potencies beside an inconclusive call are fits to weak or partial responses and may not hold up. Active and inactive are the calls of the source. Calls come from the whole dose curve; as a rule, active = well fitted inhibition curve with a large enough effect; inconclusive = small, poorly fitted or top-dose-only effect, or another doubt; inactive = no such curve, though single readings can be large or run the other way.

Assay: qHTS Assay for the Inhibitors of L3MBTL1: Hit Validationin AlphaScreen Counterscreen (AID 602224)
Details: signal inhibition; series mostly up to 57.1 µM
Source text: The histone code is comprised of many post-translational modifications that occur mainly in histone tail peptides. The identity and location of these marks are read by a variety of histone binding proteins that are emerging as important regulators of cellular differentiation and development and are increasingly being implicated in numerous disease states. Small molecule probes that disrupt the interaction between histone binding proteins and chromatin would enable a systematic chemical biology study of proteins that read the histone code and could potentially reveal new targets for drug discovery. However, no such small molecules are known. This dearth of quality molecular probes can largely be attributed to the novelty of the target class and the lack of screening assays. This proposal details the development of the first high-throughput screening assay for the discovery of inhibitors of methyl-lysine binding proteins and how it can be used to initiate a full-scale discovery effort for antagonists of histone binding proteins. Specifically, this work focuses on an AlphaScreen(tm)-based HTS assay for Malignant Brain Tumor (MBT) domain-containing proteins, which bind to the lower methylation states of lysine residues present in histone tail peptides.
Although AlphaScreen has significant advantages with its utility in a variety of epigenetic target assays, the primary screening data (linked to this assay) should be used with caution due to the prevalence of screening artifacts. An AlphaScreen counterscreen was developed and ran against any putative actives to eliminate non-specific artifacts. […] Compounds that were active in the primary screen were run in this this counterscreen. Compounds that are active in this screen are compounds that are artifacts in the primary screen.
NIH Chemical Genomics Center [NCGC]
NIH Molecular Libraries Probe Centers Network [MLPCN]
Assay Submitter (PI): William Janzen, University of Carolina, Chapel Hill
Biotinylated hexahistidine (b-His6) (PerkinElmer, Waltham, MA) will be added to 1,536-well plates in a 3 uL dispense. Compounds will be added in a 23 nL pin-transfer step, and plates will be incubated at room temperature for 15 min. Streptavidin-coated donor and nickel chelate acceptor AlphaScreen beads will be added (1 uL) for final concentrations of 10 ug/mL each bead and 1 nM b-His6, and plates read as described above (qHTS assay) after a 30 min incubation at room temperature in the dark
In the case of `O=c1cc2c(=O)oc3cc(O)c(O)oc3c2c(O)c1O`, the Potency is reported as inconclusive: 2.12 µM [inhibitor, full curve].
For `CCN(CC)Cc1c(O)c(Cl)cc2c(C)cc(=O)oc12`, the Potency was “inactive”.
In the case of `Oc1[nH]c2ccccc2c1N=NC(=S)N1CCOCC1`, the Potency is reported as inconclusive: 37.7 µM [inhibitor, single point].
For `COc1ccc2[nH]c(=O)cc(C(=O)O)c2c1`, the Potency was “inactive”.
With `CSc1nnc(SCc2nc3sc(C(=O)O)c(C)c3c(=O)[nH]2)s1` the Potency was inconclusive: 21.2 µM [inhibitor, partial curve, poor fit].
For `CCOC(=O)C(C)Sc1nc(-c2ccccn2)ncc1OC` (stereo not given), the Potency was inconclusive: 37.7 µM [inhibitor, single point].
With `Nc1ccc(Nc2ccccc2)c(S(=O)(=O)O)c1` the Potency was inconclusive: 29.9 µM [inhibitor, partial curve, poor fit].
In the case of `CCOC(=O)CNS(=O)(=O)c1cc(-c2nn(C)c(=O)c3ccccc23)ccc1C`, the Potency is reported as inconclusive: 29.9 µM [inhibitor, partial curve, poor fit].
For `Cc1ccnc2nc(C(=O)Nc3nc(-c4ccccn4)cs3)nn12`, the Potency was inconclusive: 37.7 µM [inhibitor, single point].
In the case of `N#C/C(=C/c1cccn1-c1cccc(C(=O)O)c1)c1ccc(Cl)cc1`, the Potency is reported as inconclusive: 21.2 µM [inhibitor, single point].
For `Cc1ccc(N=C2NC(=O)/C(=C/C=C/c3ccco3)S2)cc1C`, the Potency was inconclusive: 8.44 µM [inhibitor, partial curve, poor fit].
In the case of `CCn1c(SC(C)C(=O)O)nc2sc3c(c2c1=O)CCC3` (stereo not given), the Potency is reported as “inactive”.
In the case of `CN(c1ccccc1)c1ccc(/C=C(\CCC(=O)O)c2nc3ccccc3s2)cc1[N+](=O)[O-]`, the Potency is reported as inconclusive: 9.47 µM [inhibitor, partial curve].
In the case of `O=C(COC(=O)c1cc2c(s1)CCC2)Nc1ccc(F)cc1`, the Potency is reported as inconclusive: 23.8 µM [inhibitor, partial curve, poor fit].
With `O=C(CSc1nc(-c2ccccc2)nc2ccc(F)cc12)Nc1ccc(C(=O)O)cc1` the Potency was inconclusive: 37.7 µM [inhibitor, single point].
